Data as given in PubChem BioAssay AID1224830 (NIAID, 2016).

Aim: 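Regulators of TLR4 signalling towards TNF-alpha in macrophage-like cells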 (primary screen)
Cells: human THP-1 monocytic leukaemia cells, TNF dual-luciferase reporter clone, PMA-differentiated to macrophage-like cells
Knock-down reagent: siRNA pool against human genes, 50 nM
Duration: LPS for 4 h, given about 3 days after siRNA transfection
Challenge: bacterial LPS (TLR4 ligand), 10 ng/ml
Read-out: 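TNF firefly reporter luminescence divided by renilla, normalised to the plate median, then turned into a robust z-score for each replicate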
Reading the numbers: TNF reporter robust z-score: higher = stronger TNF reporter response to LPS
Active means: 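Each well counts as active if its z-score is over 2.8 or under -1.5; controls are left without a call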
Shown is one part, drawn at random, of about 18,000 reagents. About 2,900 of all reagents (16%) count as active. 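Calls are made per well; low scores hint the gene aids the LPS response, high scores that it dampens it.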 A number with no mark means an inactive call. Repeated entries: four replicate wells of each siRNA pool.

no.	Gene	TNF reporter robust z-score
1	UBXN11	-0.74
2	UBXN11	-1.04
3	UBXN11	-0.69
4	UBXN11	-1.48
5	CLLU1-AS1	1.59
6	CLLU1-AS1	-0.68
7	CLLU1-AS1	-0.34
8	CLLU1-AS1	0.56
9	SCAMP2	1.03
10	SCAMP2	2.87 (active)
11	SCAMP2	2.79
12	SCAMP2	1.58
13	PGK1	1.19
14	PGK1	-0.97
15	PGK1	-1.41
16	PGK1	1.04
17	NLGN4Y	1.22
18	NLGN4Y	2.1
19	NLGN4Y	1.01
20	NLGN4Y	2.67
21	C11orf40	0.22
22	C11orf40	0.64
23	C11orf40	0.71
24	C11orf40	-0.2
25	SPPL3	-1.11
26	SPPL3	-0.19
27	SPPL3	-0.77
28	SPPL3	-0.46
29	TEX28	1.22
30	TEX28	1.34
31	TEX28	2.44
32	TEX28	1.09
33	SLC60A2	-0.55
34	SLC60A2	-0.45
35	SLC60A2	-0.48
36	SLC60A2	0.36
37	SLC26A2	-1.02
38	SLC26A2	-0.46
39	SLC26A2	-1.34
40	SLC26A2	-1.31
41	FXYD5	-0.37
42	FXYD5	-0.41
43	FXYD5	-0.97
44	FXYD5	1.12
45	ADAM9	-0.87
46	ADAM9	-0.86
47	ADAM9	-1.01
48	ADAM9	1.74
49	RAF1	-0.46
50	RAF1	-0.55
51	RAF1	-0.45
52	RAF1	-0.49
53	GSTT2B	0.3
54	GSTT2B	-0.07
55	GSTT2B	-0.11
56	GSTT2B	0.29
57	SLC22A25	-0.78
58	SLC22A25	-0.52
59	SLC22A25	-0.74
60	SLC22A25	-0.8
61	OSR2	-0.48
62	OSR2	-0.11
63	OSR2	1.49
64	OSR2	0.17
65	TDRD7	-1.41
66	TDRD7	-0.97
67	TDRD7	-1.31
68	TDRD7	-0.46
69	PEAK3	-0.22
70	PEAK3	0.82
71	PEAK3	-0.74
72	PEAK3	-0.65
73	SMIM7	1.96
74	SMIM7	-1.19
75	SMIM7	-1.01
76	SMIM7	-0.65

Part of the list above, set out differently:
Gene	TNF reporter robust z-score
SLC26A2	-1.31
FXYD5	-0.37
FXYD5	-0.41
FXYD5	-0.97
